{"sequences": {"note": "The chains behind the UniProt entries cited, without tags or fusion partners. Where a name states a change or a piece, a line headed by the entry shows the natural chain unless it says otherwise.", "UniProt Q15477": "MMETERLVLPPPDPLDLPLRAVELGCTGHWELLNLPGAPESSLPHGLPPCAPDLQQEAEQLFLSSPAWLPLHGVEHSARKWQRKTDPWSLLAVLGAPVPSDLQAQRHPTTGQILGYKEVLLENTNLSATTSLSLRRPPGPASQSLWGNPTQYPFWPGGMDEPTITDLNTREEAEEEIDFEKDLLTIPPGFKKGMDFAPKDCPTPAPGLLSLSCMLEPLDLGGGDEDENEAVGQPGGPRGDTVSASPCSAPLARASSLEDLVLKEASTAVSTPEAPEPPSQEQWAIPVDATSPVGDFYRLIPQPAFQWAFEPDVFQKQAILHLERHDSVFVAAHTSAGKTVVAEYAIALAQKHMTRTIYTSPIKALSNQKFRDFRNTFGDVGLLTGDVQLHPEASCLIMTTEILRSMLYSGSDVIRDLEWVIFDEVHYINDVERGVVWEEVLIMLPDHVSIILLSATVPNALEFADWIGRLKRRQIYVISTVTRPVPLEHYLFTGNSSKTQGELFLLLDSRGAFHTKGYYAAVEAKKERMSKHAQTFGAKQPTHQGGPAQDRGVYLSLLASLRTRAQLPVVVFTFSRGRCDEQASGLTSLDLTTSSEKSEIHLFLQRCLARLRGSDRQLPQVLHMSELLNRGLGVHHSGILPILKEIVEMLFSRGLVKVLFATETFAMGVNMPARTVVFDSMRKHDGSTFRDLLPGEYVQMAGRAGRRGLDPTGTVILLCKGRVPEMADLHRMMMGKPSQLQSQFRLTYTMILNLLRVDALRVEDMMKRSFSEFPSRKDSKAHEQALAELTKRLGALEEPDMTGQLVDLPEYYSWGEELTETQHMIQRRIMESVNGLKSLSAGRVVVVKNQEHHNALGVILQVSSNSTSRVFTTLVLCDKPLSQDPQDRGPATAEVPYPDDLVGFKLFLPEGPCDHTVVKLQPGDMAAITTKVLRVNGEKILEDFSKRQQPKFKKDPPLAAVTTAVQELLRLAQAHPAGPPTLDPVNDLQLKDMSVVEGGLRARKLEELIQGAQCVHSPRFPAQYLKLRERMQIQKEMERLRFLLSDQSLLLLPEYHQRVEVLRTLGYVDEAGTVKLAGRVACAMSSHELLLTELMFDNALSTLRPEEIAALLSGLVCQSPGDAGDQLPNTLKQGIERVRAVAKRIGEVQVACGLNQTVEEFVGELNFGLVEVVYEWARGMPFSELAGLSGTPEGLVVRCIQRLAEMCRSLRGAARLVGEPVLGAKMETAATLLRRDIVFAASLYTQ", "UniProt Q53LP3": "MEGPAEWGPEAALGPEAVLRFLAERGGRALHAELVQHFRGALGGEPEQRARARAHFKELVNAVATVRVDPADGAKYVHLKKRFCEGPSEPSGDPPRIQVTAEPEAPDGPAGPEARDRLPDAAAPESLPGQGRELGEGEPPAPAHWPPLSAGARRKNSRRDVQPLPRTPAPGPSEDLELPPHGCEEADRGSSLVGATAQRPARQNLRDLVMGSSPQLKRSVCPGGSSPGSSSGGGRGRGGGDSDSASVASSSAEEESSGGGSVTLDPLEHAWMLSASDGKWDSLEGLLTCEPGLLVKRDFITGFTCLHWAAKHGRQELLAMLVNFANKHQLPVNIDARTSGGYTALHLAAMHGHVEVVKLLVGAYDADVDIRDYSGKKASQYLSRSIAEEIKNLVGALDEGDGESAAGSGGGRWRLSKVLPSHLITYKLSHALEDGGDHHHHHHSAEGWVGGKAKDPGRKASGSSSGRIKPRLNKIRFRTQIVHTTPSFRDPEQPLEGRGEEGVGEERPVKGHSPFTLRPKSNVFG", "UniProt Q8N357": "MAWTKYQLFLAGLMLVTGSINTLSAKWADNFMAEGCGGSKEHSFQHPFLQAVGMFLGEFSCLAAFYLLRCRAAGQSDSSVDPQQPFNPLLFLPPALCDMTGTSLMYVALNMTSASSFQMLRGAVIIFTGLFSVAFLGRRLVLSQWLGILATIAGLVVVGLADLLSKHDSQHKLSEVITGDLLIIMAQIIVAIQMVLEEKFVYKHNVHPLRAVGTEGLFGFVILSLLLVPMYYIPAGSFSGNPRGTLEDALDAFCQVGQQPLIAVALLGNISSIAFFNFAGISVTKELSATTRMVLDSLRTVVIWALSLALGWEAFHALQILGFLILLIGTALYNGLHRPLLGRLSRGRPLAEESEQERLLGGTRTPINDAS", "UniProt Q8IY18": "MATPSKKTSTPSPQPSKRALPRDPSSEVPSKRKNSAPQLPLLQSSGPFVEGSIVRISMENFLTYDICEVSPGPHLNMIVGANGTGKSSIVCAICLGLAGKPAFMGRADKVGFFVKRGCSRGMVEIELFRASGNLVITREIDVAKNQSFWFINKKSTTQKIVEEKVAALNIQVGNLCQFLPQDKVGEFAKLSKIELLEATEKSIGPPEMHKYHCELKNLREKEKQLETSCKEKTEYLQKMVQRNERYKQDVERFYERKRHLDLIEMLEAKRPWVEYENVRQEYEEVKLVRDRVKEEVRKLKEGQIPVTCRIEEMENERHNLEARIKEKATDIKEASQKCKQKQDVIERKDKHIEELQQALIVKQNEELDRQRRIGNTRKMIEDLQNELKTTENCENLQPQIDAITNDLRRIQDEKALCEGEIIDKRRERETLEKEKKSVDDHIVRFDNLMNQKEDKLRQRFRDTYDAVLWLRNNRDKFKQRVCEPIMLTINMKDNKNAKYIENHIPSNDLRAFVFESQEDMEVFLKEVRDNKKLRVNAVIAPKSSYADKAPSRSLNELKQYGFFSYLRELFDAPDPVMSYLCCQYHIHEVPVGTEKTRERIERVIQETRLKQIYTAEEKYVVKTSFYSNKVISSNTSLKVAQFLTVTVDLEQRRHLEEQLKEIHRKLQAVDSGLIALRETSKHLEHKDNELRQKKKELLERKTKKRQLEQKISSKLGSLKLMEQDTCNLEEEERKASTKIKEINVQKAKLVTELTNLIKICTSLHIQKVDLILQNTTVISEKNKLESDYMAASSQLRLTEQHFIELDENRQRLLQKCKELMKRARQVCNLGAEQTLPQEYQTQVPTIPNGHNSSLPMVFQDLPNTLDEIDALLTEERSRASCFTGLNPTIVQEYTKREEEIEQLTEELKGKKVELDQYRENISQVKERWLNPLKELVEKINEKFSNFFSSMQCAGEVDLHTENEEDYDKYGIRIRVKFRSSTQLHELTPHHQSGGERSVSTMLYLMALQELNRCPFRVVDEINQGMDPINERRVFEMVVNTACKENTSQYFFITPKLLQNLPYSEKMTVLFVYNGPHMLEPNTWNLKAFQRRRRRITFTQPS", "UniProt Q96AG3": "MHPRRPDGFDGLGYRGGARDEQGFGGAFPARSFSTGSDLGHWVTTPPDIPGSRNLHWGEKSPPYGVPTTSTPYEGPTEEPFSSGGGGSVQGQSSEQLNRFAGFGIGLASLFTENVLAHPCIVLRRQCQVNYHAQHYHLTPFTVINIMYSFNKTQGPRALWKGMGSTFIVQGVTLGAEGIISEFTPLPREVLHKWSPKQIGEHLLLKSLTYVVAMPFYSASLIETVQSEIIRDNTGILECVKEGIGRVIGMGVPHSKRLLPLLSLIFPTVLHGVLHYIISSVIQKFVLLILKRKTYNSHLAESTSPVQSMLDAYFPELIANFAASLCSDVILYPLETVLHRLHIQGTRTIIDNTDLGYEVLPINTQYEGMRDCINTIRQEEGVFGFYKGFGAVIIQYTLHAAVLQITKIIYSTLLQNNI", "UniProt P09486": "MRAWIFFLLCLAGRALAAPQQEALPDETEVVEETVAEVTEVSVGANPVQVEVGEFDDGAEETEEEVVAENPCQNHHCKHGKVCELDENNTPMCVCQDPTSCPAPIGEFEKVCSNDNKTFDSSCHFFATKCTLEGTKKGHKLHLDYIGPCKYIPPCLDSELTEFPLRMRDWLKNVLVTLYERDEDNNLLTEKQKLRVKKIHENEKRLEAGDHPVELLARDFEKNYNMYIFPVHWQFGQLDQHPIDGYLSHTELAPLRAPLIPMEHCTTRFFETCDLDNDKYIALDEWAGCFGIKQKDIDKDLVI", "UniProt Q9UPR3": "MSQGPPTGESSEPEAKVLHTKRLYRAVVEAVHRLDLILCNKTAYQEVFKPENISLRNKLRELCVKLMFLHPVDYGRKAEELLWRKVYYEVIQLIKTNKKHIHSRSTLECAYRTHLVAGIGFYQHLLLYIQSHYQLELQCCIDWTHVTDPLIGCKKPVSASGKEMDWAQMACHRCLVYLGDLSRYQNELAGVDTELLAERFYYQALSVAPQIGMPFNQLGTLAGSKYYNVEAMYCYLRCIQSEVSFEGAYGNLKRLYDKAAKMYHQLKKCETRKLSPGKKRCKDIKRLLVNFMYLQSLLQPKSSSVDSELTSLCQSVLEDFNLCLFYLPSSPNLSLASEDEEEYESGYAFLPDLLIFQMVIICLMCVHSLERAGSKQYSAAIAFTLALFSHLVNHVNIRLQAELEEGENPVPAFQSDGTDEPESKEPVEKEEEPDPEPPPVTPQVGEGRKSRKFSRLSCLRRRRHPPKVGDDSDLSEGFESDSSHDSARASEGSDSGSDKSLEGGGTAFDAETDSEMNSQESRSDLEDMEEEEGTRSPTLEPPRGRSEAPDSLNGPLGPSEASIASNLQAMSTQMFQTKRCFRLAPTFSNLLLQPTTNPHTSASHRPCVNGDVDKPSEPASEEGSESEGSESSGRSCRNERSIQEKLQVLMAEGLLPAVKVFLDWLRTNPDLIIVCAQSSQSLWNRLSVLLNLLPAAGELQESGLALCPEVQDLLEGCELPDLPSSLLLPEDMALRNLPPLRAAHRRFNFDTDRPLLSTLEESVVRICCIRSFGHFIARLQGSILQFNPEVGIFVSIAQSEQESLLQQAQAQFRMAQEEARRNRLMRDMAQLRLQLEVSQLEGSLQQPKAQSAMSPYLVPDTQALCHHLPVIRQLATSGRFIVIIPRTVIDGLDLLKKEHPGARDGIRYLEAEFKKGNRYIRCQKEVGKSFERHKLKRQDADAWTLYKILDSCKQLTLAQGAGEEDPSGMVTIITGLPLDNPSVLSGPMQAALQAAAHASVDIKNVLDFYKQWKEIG", "UniProt Q5SXM2": "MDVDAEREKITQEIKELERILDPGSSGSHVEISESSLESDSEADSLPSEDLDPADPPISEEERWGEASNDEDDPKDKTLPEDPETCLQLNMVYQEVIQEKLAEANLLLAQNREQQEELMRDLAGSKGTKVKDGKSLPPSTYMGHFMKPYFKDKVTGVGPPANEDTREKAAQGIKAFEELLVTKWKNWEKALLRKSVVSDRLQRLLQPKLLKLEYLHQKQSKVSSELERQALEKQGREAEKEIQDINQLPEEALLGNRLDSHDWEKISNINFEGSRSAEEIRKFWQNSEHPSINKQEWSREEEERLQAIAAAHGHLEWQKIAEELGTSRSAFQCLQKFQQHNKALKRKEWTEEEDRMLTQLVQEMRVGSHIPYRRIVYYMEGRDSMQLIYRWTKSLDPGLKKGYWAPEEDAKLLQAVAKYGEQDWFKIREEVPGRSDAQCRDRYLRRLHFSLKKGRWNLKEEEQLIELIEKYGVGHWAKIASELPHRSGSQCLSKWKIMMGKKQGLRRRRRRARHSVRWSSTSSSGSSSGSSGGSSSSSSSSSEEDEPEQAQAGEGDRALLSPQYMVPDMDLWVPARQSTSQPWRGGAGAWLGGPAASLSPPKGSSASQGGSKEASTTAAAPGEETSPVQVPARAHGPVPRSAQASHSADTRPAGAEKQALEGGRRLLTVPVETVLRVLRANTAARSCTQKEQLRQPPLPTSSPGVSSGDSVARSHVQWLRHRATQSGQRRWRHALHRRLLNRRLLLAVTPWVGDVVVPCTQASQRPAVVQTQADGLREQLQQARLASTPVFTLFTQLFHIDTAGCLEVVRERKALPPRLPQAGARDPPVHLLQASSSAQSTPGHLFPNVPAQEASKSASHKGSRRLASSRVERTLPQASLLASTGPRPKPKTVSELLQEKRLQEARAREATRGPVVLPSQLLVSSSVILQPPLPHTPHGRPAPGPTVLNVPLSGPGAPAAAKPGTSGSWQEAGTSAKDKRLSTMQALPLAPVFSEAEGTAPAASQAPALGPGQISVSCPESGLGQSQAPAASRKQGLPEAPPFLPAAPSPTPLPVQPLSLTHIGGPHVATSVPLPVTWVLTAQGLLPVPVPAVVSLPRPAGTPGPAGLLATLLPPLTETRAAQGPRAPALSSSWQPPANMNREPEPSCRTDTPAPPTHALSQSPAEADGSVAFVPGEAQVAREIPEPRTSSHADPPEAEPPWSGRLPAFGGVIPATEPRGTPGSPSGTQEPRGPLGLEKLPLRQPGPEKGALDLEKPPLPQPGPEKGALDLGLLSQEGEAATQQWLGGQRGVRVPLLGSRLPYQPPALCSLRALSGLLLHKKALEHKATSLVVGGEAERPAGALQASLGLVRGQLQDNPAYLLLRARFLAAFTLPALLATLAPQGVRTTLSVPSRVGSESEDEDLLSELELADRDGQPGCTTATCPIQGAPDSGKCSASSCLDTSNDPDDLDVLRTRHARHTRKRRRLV"}, "source": "the supplement of paper PMC11732987", "about": "“Enantioselective OTUD7B fragment discovery through chemoproteomics screening and high-throughput optimisation” (Communications Chemistry, 2025)", "note": "This is one part of the list. The data scatter; read single values as rough.", "data": [{"compound": "ClCC(=O)N[C@@H]1CCCc2ccccc12", "test": "log2 mean competition ratio of IA-DTB cysteine labelling (DMSO/compound) (log2 ratio); higher = stronger cysteine engagement by compound", "conditions": "50 µM; treatment time: 4 h; cell line lysate: HEK293T", "method": "(§1)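 IA-DTB competitive cysteine chemoproteomics in HEK293T RIPA lysate. Lysates were treated with compound 29 or 30 at 50 or 200 µM for 4 h, then IA-DTB (500 µM, 1 h), trypsin-digested, NeutrAvidin-enriched and analysed by diaPASEF. Competition ratio = intensity DMSO / intensity compound (n=4 treated, n=64 DMSO); binding: mean log2 CR ≥ 1 and p ≤ 0.05 plus QC filters. Target is the cysteine site.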", "values": [{"target": "SKIV2L C247 (UniProt Q15477)", "log2 mean competition ratio": -0.0128}, {"target": "SOWAHC C221 (UniProt Q53LP3)", "log2 mean competition ratio": 0.118}, {"target": "SLC35F6 C36 (UniProt Q8N357)", "log2 mean competition ratio": 0.0176}, {"target": "SMC5 C881 (UniProt Q8IY18)", "log2 mean competition ratio": 0.193}, {"target": "SOD1 C147 (UniProt P00441)", "log2 mean competition ratio": 0.0863}, {"target": "SORBS3 C521 (UniProt O60504)", "log2 mean competition ratio": 0.0779}, {"target": "SLC9A3R2 C103 (UniProt Q15599)", "log2 mean competition ratio": -0.301}, {"target": "SLC25A46 C372 (UniProt Q96AG3)", "log2 mean competition ratio": 0.164}, {"target": "SNRPD2 C63", "log2 mean competition ratio": 0.452}, {"target": "SORL1 C1549 (UniProt Q92673)", "log2 mean competition ratio": -0.217}, {"target": "SLX4 C519 (UniProt Q8IY92)", "log2 mean competition ratio": 0.00685}]}, {"compound": "ClCC(=O)N[C@@H]1CCCc2ccccc12", "test": "log2 mean competition ratio of IA-DTB cysteine labelling (DMSO/compound) (log2 ratio); higher = stronger cysteine engagement by compound", "conditions": "200 µM; treatment time: 4 h; cell line lysate: HEK293T", "method": "as §1", "values": [{"target": "SKIV2L C247 (UniProt Q15477)", "log2 mean competition ratio": -0.248}, {"target": "SOWAHC C221 (UniProt Q53LP3)", "log2 mean competition ratio": 0.0246}, {"target": "SPARC C265 (UniProt P09486)", "log2 mean competition ratio": 0.499}, {"target": "SLC35F6 C36 (UniProt Q8N357)", "log2 mean competition ratio": -0.149}, {"target": "SLC25A38 C140 (UniProt Q96DW6)", "log2 mean competition ratio": 0.268}, {"target": "SMC5 C881 (UniProt Q8IY18)", "log2 mean competition ratio": -0.0289}, {"target": "SMG5 C174 (UniProt Q9UPR3)", "log2 mean competition ratio": -0.382}, {"target": "SOD1 C147 (UniProt P00441)", "log2 mean competition ratio": -0.154}, {"target": "SORBS3 C521 (UniProt O60504)", "log2 mean competition ratio": -0.221}, {"target": "SLC9A3R2 C103 (UniProt Q15599)", "log2 mean competition ratio": -0.17}, {"target": "SNAPC4 C491 (UniProt Q5SXM2)", "log2 mean competition ratio": 0.353}, {"target": "SLC25A46 C372 (UniProt Q96AG3)", "log2 mean competition ratio": -0.00678}, {"target": "SNRPD2 C63", "log2 mean competition ratio": 0.207}, {"target": "SLX4 C519 (UniProt Q8IY92)", "log2 mean competition ratio": -0.0556}]}]}
